Source: PubChem BioAssay AID758 (NMMLSC, 2007)
In all, about 190,000 compounds went through this assay and about 110 (0.058%) were called active. This list was built around the results that the source calls inconclusive (neither active nor inactive); the mix of calls is not that of the screen.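 Rule for the calls: active = fluorescent GTP binding to Rab7 beads changed by at least 20 points from the 100% baseline, either direction, mostly lower; inconclusive = compound itself probably fluorescent, or too few beads counted; inactive = the rest.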

Each molecule was assayed on Rab7 GTPase wild type (dog), Bodipy-FL-GTP binding (assay: modulators of GTP binding to Rab7, primary screen, biochemical, wildtype, multiplex bead flow cytometry (AID 758;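 note: median green fluorescence of bound Bodipy-FL-GTP per Rab7 bead population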)). Conditions: GST-Rab7 beads, fluorescent GTP binding, at 10 µM, actives lie on both sides, untreated = 100%, excess cold GTP = 0%.

Compound | GTP binding activity (percent of control)
COc1cccc(/C=N/Nc2ncnc3c2ncn3Cc2ccccc2)c1O | inconclusive: 89%
COc1ccc(C(=O)N2CCCC(CCC(=O)NCc3ccc(F)c(F)c3)C2)o1 (stereo not drawn) | inconclusive: 113%
COc1cccc(C(=O)N2CCN(C3CCC(c4ccccc4)CC3)CC2)c1OC (stereo not drawn) | inconclusive: 108%
COc1ccc(CNc2nn[nH]n2)cc1OC | inconclusive: 102%
CCCN(Cc1ccccc1)C(=S)Nc1ccc(C(C)=O)cc1 | inconclusive: 93%
C=CCn1c(CSc2nc3ccccc3s2)n[nH]c1=S | inconclusive: 98%
COc1cccc(NC(=O)CN(c2ccc3c(c2)OCO3)S(C)(=O)=O)c1 | inconclusive: 96%
COCCNC(=S)Nc1ccc2[nH]c(=O)[nH]c2c1 | inactive: 95%
COc1ccc(-n2c(=S)[nH]c3cc(C(=O)Nc4cc(OC)c(OC)c(OC)c4)ccc3c2=O)c(OC)c1 | inconclusive: 96%
O=C(NCc1ccccn1)C1CC(c2ccc(Cl)c(Cl)c2)=NO1 (stereo not drawn) | inconclusive: 98%
Cc1cc2cc(C(c3nnnn3Cc3ccco3)N3CCc4ccccc43)c(=O)[nH]c2cc1C (stereo not drawn) | inconclusive: 92%
O=C(O)COC(=O)C1C(c2ccccc2)C(C(=O)O)C1c1ccccc1 (stereo not drawn) | inactive: 104%
COc1ccc(C(=S)N2CCCCC2)cc1Br | inconclusive: 103%
Cc1ccc(NC(=O)Cn2ccc([N+](=O)[O-])n2)cc1C | inactive: 104%
COC(=O)c1c(NC(=O)c2cccs2)sc2c1CCCC2 | inconclusive: 104%
CC(C)COC(=O)NCCCOC(=O)Nc1ccccc1 | inconclusive: 98%
CCOC(=O)c1cc2c(=O)[nH]ccc2nc1C | inconclusive: 89%
Cc1ccc(O)c(C(=O)/C=C/c2ccc3c(c2)OCCO3)c1 | inactive: 92%
O=C(CN1CC(=O)Oc2ccccc21)OCC(=O)c1cccc(Br)c1 | inconclusive: 104%
O=C(O)C1Nc2c(O)cc(Cl)c([N+](=O)[O-])c2C2C=CCC12 (stereo not drawn) | inconclusive: 86%
COC(=O)c1ccccc1NC(=O)c1ccc(COc2cc(C)cc(C)c2)o1 | inconclusive: 98%
CCOc1ccc(C(C(=O)Nc2ccc(F)cc2)N(C(=O)Cn2nnc3ccccc32)C2CC2)cc1 (stereo not drawn) | inconclusive: 100%
COc1cc(C)c(S(=O)(=O)N2CCN(C)CC2)cc1C | inconclusive: 103%
CCOC(=O)N1CCC(NC(=O)c2cc3c(-c4ccc(OC)c(OC)c4)nn(C)c3s2)CC1 | inconclusive: 91%

Compound | GTP binding activity (percent of control)
CC(C)NC(=O)CN(c1cccc([N+](=O)[O-])c1)S(=O)(=O)c1ccccc1 | inconclusive: 88%
COc1ccc(-c2noc(CCC(=O)NCC3CCN(Cc4cccc(C)c4)CC3)n2)cc1 | inconclusive: 102%
CC(C)(C)C(=O)c1sc2nc(-c3cccs3)cc(C(F)(F)F)c2c1N | inconclusive: 132%
O=C(CCCN1C(=O)c2cccc3cccc(c23)C1=O)N1CCN(c2ccc(F)cc2)CC1 | inconclusive: 93%
COc1ccc2cc3cc(C(=O)NCCCN4CCOCC4)oc3nc2c1 | inconclusive: 94%
CCN(CC)S(=O)(=O)c1ccc(N(C)CCc2ccc(OC)c(OC)c2)nc1 | inactive: 96%
CCc1nnc(NC(=O)c2cc(S(=O)(=O)N3CCOCC3)ccc2N2CCCCC2)s1 | inconclusive: 500%
Cn1c(N2CCN(c3ccccn3)CC2)nc2c1c(=O)n(Cc1ccc(Cl)cc1)c(=O)n2C | inconclusive: 90%
CCNC(=S)Nc1cccc(F)c1C | inactive: 103%
O=C(Nc1nc(-c2cccnc2)cs1)c1ccccc1F | inconclusive: 95%
Cc1cccc2cc(C#N)c(NCCNS(=O)(=O)c3ccc4c(c3)OCCO4)nc12 | inconclusive: 93%
CCC(C)Sc1nc2c(c(=O)[nH]c(=O)n2C)n1C (stereo not drawn) | inactive: 106%
O=C(c1ccco1)N1CCN(C(=O)c2cnn3c2NC(c2cccs2)CC3C(F)(F)F)CC1 (stereo not drawn) | inconclusive: 98%
CC1(C)CC(=O)C/C(=N\NC(=O)c2cccs2)C1 | inconclusive: 102%
O=C(NC(=S)Nc1ccccc1N1CCOCC1)c1sc2ccccc2c1Cl | inconclusive: 101%
Cc1cc2c(c(Sc3ccccc3)n1)C(=O)OC2 | inconclusive: 107%
CC(=O)c1ccc2c(c1)CC(C)C(=O)N2C (stereo not drawn) | inactive: 99%
CCOc1cc(C(=O)Nc2ccc(NC(C)=O)cc2)ccc1OCC(=O)N1CCCCC1 | inactive: 99%
CC(=O)Nc1nc(CC(C)C)cc2c1c(=O)oc1ccccc12 | inconclusive: 93%
CNS(=O)(=O)c1cccc(C(=O)OCC(=O)Nc2ccc(OC)cc2[N+](=O)[O-])c1 | inactive: 94%
c1ccc(-n2nnnc2OCCOc2nnnn2-c2ccccc2)cc1 | inconclusive: 93%
Nc1nc(N2CCCCC2)nc(N2CCCCC2)n1 | inconclusive: 107%
O=C(N/N=C1\CCCc2ccccc21)C(O)c1ccccc1 (stereo not drawn) | inactive: 101%
COc1cc(OC)nc(Oc2ccccc2C(=O)Oc2ccc(F)cc2Cl)n1 | inconclusive: 98%

Fetched by compound from the entries so far (4):
Compound | GTP binding activity (percent of control)
CCCN(Cc1ccccc1)C(=S)Nc1ccc(C(C)=O)cc1 | inconclusive: 93%
CC(C)NC(=O)CN(c1cccc([N+](=O)[O-])c1)S(=O)(=O)c1ccccc1 | inconclusive: 88%
O=C(c1ccco1)N1CCN(C(=O)c2cnn3c2NC(c2cccs2)CC3C(F)(F)F)CC1 (stereo not drawn) | inconclusive: 98%
COC(=O)c1ccccc1NC(=O)c1ccc(COc2cc(C)cc(C)c2)o1 | inconclusive: 98%

Further records follow:

Compound | GTP binding activity (percent of control)
C=CCN(CC=C)C(=O)c1ccc(OC2CCN(Cc3ccccn3)CC2)cc1 | inconclusive: 97%
O=C(O)c1nn(-c2ccccc2)c(-c2ccccc2)c1C(=O)c1ccccc1 | inconclusive: 93%
O=C(NC1(C(=O)NC2CCCC2)CCCCC1)c1ccc2c(c1)OCO2 | inactive: 100%
CCOC(=O)c1cccc(C(=O)Nc2nc3ccc(OC)cc3s2)n1 | inactive: 98%
CC(C)N(C(=O)Cn1cc(SCC(=O)NCc2ccco2)c2ccccc21)C(C)C | inconclusive: 92%
C#CCOc1ccc(/C=N/NC(=O)c2cccnc2)cc1OCC | inconclusive: 91%
O=C(Cc1ccc(Br)cc1)OCC(=O)c1ccc2c(c1)OCCO2 | inconclusive: 96%
NC(=O)c1ccc(NCCCN2CCOCC2)c([N+](=O)[O-])c1 | inactive: 98%
O=C(CC1Sc2ccccc2NC1=O)Nc1ccccc1[N+](=O)[O-] (stereo not drawn) | inconclusive: 99%
Cc1oc2cc(OCC(=O)O)ccc2c(=O)c1Oc1ccccc1 | inconclusive: 100%
O=C(COC(=O)c1ccccn1)Nc1cccc2ccccc12 | inactive: 108%
CC(=O)c1c(C)[nH]c(C(=O)OCc2ccc(F)cc2Cl)c1C | inconclusive: 99%
Cc1nc(N2CCN(c3ccccn3)CC2)c2c(C)c(C(=O)Nc3ccc(F)cc3)sc2n1 | inconclusive: 108%
O=C(O)C1CCCCC1C(=O)NCc1ccccc1 (stereo not drawn) | inconclusive: 104%
O=S(=O)(c1ccccc1)N(CC(O)Cn1c2ccccc2c2ccccc21)c1ccccc1 (stereo not drawn) | inconclusive: 90%
O=C(Nc1ccccc1)Nc1cccc2nsnc12 | inconclusive: 96%
O=C1c2[nH]nc(-c3ccccc3O)c2C(c2cccc(Cl)c2)N1CC1CCCO1 (stereo not drawn) | inconclusive: 94%
Cc1ccc(Cl)cc1N1CCN(C(=O)CN(C2CCCCC2)S(C)(=O)=O)CC1 | inactive: 98%
NC(=O)NC(c1ccccc1)c1ccccc1F (stereo not drawn) | inconclusive: 103%
Nc1cc(=O)[nH]n1C1CCCC1 | inconclusive: 95%
CCc1ccc(N(CC(=O)NCc2ccc(F)cc2)C(=O)c2csnn2)cc1 | inconclusive: 93%
COc1ccc(CC2(CO)CCN(Cc3ccc(NC(C)=O)cc3)CC2)cc1 | inconclusive: 99%
O=C(O)c1cccc(OCc2ccccc2Cl)c1 | inconclusive: 107%
CCCOc1ccc(C(=O)NNC(=S)NC(=O)c2cc(-c3ccccc3)nc3ccccc23)cc1 | inconclusive: 92%

Compound | GTP binding activity (percent of control)
O=C(CSc1nnc(-c2cccs2)n1-c1ccccc1)NCc1ccc2c(c1)OCO2 | inconclusive: 99%
COc1ccccc1N1CCN(CC(=O)NC(=O)NCc2ccco2)CC1 | inconclusive: 99%
O=C(c1cc([N+](=O)[O-])ccc1N1CCOCC1)N1CCCC1 | inactive: 99%
Cn1c(SCC(=O)Nc2cccc(Br)c2)nnc1-c1cc2ccccc2o1 | inconclusive: 153%
O=c1c2c3c(sc2ncn1Cc1ccc(F)cc1)CCC3 | inconclusive: 94%
C=CCN(CC=C)S(=O)(=O)c1ccc(C(=O)Nc2nc3c(s2)CCc2ccccc2-3)cc1 | active: 27%
COc1cccc(NC(=O)COC(=O)/C=C/c2ccc(Cl)cc2Cl)c1 | inactive: 86%
COc1ccc(OC)c(C2C3=C(COC3=O)Nc3cc4c(cc32)OCO4)c1 (stereo not drawn) | inconclusive: 89%
CCc1nnc(NC(=O)CSc2nc(-c3ccccc3)nc3ccccc23)s1 | inactive: 99%
O=C(Cn1c(=O)n(CC(=O)NCc2ccccc2)c2ccccc21)NCc1ccccc1 | inconclusive: 99%
c1coc(-c2nnc3sc(Cc4cccs4)nn23)c1 | inconclusive: 92%
C/C=C/C=N/Nc1nc(C)cc(=O)[nH]1 | inconclusive: 95%
COc1ccc(Br)cc1/C=N/NC(=O)c1ccc(OC)c(OC)c1 | inconclusive: 103%
CCOc1ccc(Br)cc1-c1noc(-c2cccs2)n1 | inactive: 99%
CCN(CC)c1ccc(-c2nn3c(-c4cccnc4)nnc3s2)cc1 | inactive: 88%
O=C(c1ccccc1)c1ccc(OCCCN2CCCC2)cc1 | inconclusive: 101%
CCOC(=O)Cn1nnnc1C(C(C)C)N(Cc1cccs1)Cc1cc2cc(C)ccc2[nH]c1=O (stereo not drawn) | inactive: 95%
O=C(Cn1cnc2ccccc2c1=O)c1c[nH]c2ccccc12 | inconclusive: 103%
COC(=O)c1sc2ncccc2c1OCc1ccc(Cl)cc1Cl | inconclusive: 93%
CSc1nc(C)c2cc(C)oc2n1 | inconclusive: 95%
CSc1cccc(NC(=S)N(Cc2ccccc2)Cc2ccccn2)c1 | inactive: 104%
